From US20050140051A1, “Method for making fog resistant thermoplastic articles and articles made therefrom” (priority 2003, published 2005)

Assay: Anti-fog (hot fog) test of additive as coating on polycarbonate plaque held over 50° C. water
Details: 3M anti-static additive coated on polycarbonate plaque, coated side down over water at 50° C.; time until visible fog
For `CCCC[N+](CCCC)(CCCC)CCCC.O=S(=O)([O-])C(F)(F)F` [CE 4, (C4H9)4N^+−O3SCF3], the “Fog free time as coating” value was 3 s.
In the case of `CCCC[N+](C)(CCCC)CCCC.O=S(=O)([O-])C(F)(F)C(F)(F)C(F)(F)C(F)(F)F` [CE 6, (C4H9)3N^+CH3^−O3SC4F9], the “Fog free time as coating” value is reported as less than 1 s.
With `CCCC[N+](CCCC)(CCCC)CCCC.O=S(=O)([N-]S(=O)(=O)C(F)(F)F)C(F)(F)F` [CE 7, (C4H9)4N^+−N(SO2CF3)2] the “Fog free time as coating” value was less than 1 s.
In the case of “C8H17N(CH3)2(CH2CH2OH)^+−N(SO2SCF3) [CE 2]”, the “Fog free time as coating” value is reported as 11 s.
In the case of `CC[N+](CC)(CC)CC.O=S(=O)([O-])C(F)(F)F` [CE 3, (CH3CH2)4N^+−O3SCF3], the “Fog free time as coating” value is reported as 6 s.
For “C8H17N(CH3)2(CH2CH2OH)^+−O3SC4F9 [Example 2]”, the “Fog free time as coating” value was greater than 60 s.
For `CC[N+](CC)(CC)CC.O=S(=O)([N-]S(=O)(=O)C(F)(F)F)C(F)(F)F` [CE 5, (CH3CH2)4N^+−N(SO2SCF3)], the “Fog free time as coating” value was less than 1 s.
With `CCCCCCCC[N+](C)(C)CCO.O=S(=O)([O-])C(F)(F)F` [Example 1, C8H17N(CH3)2(CH2CH2OH)^+−O3SCF3] the “Fog free time as coating” value was greater than 60 s.

Same assay, conditions: coating on polycarbonate, over water at 50° C.; perfluorinated vs aliphatic tail
In the case of `CCCCS(=O)(=O)[O-].CCCC[P+](CCCC)(CCCC)CCCC` [Example 3, H3C(CH2)3SO3^−+P(C4H9)4], the “Fog free time as coating” value is reported as 22 s.
With `CCCC[P+](CCCC)(CCCC)CCCC.O=S(=O)([O-])C(F)(F)C(F)(F)C(F)(F)C(F)(F)F` [CE 8, F3C(CF2)3SO3^−+P(C4H9)4] the “Fog free time as coating” value was less than 1 s.

Same assay, conditions: salts and nonionic surfactants as coating on polycarbonate, over water at 50° C.
With `CCCCCCCS(=O)(=O)[O-].CCCC[P+](CCCC)(CCCC)CCCC` [Example 4, H3C(CH2)6SO3^−+P(C4H9)4] the “Fog free time as coating” value was greater than 60 s.
For “H3C(CH2)11(C6H4)SO3^−+P(C4H9)4 [Example 5]”, the “Fog free time as coating” value was greater than 60 s.
